Data as given in PubChem BioAssay AID1259405 (NCATS, 2018)
This is one part, drawn at random, of about 50,000 reagents. About 4,000 of them (8%) were called active. 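Mouse siRNA library applied to hamster cells; one well for each siRNA.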 The numbers tell different reagents against one gene apart. Further read-outs or replicates are left out here.

Aim: 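Knock-downs that lift recombinant protein yield in hamster ovary cells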 (primary screen)
Cell system: Chinese hamster CHO-K1 ovary cells with stable secreted eGFP expression
Knock-down reagent: single siRNA against mouse genes, 0.8 pmol siRNA per well (2 µl of 400 nM stock)
Duration: 3 days
Measured: 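Per-well intracellular GFP measured by laser scanning cytometry, plus viability from ATP luminescence, each relative to plate median of non-targeting control wells, in %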
Scale: GFP, % of control: higher = more GFP per well, higher productivity
Active means: 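a knock-down is called active if GFP reaches 120% or more of non-targeting control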

GFP, % of control, by target and reagent
Ubald2: #1 52.1 inactive; #2 104 inactive; #3 97.4 inactive
Zfp934: #1 88 inactive; #2 85 inactive; #3 86.9 inactive
Or51d1: #1 75.5 inactive; #2 55.7 inactive; #3 60 inactive
Mapk6: #1 98.2 inactive
Gpx5: #1 95.2 inactive; #2 74.7 inactive; #3 43.6 inactive
Def6: #1 68.3 inactive; #2 57.2 inactive; #3 160 active
Mrc1: #1 68.5 inactive; #2 55.4 inactive; #3 87.9 inactive
Neu4: #1 91.8 inactive; #2 60.1 inactive; #3 45.2 inactive
Spock1: #1 57.4 inactive; #2 82.3 inactive; #3 64.3 inactive
Or1n1: #1 79.3 inactive; #2 75.5 inactive; #3 58.5 inactive
Tcp1: #1 69.1 inactive; #2 87.7 inactive; #3 78.7 inactive
Znhit2: #1 99.1 inactive; #2 94.5 inactive; #3 77.8 inactive
Adam20: #1 163 active; #2 70.6 inactive; #3 59.2 inactive
Trhde: #1 106 inactive; #2 116 inactive; #3 81.8 inactive
Cyth3: #1 44.6 inactive; #2 68.8 inactive; #3 84.1 inactive
Nudt8: #1 95.1 inactive; #2 57.8 inactive; #3 109 inactive
Slc6a20b: #1 61.3 inactive; #2 99.7 inactive; #3 74.6 inactive
Or5k14: #1 110 inactive; #2 63.1 inactive; #3 56.9 inactive; #4 60.7 inactive; #5 70 inactive; #6 70.6 inactive
C130074G19Rik: #1 36.2 inactive; #2 71.8 inactive; #3 88.9 inactive
Pygl: #1 183 active; #2 90.3 inactive; #3 119 inactive
Gmip: #1 52.9 inactive; #2 80.8 inactive
Mrpl51: #1 76.4 inactive; #2 83.5 inactive; #3 65.6 inactive
Aasdhppt: #1 95.6 inactive; #2 81.9 inactive; #3 124 active
Atcay: #1 34 inactive; #2 71.7 inactive; #3 92.6 inactive
Kin: #1 51.4 inactive; #2 50.2 inactive; #3 71.4 inactive
Sumo2: #1 122 active; #2 96.9 inactive; #3 121 active
Itgb1: #1 95.9 inactive; #2 75 inactive; #3 63 inactive
Pnpla2: #1 91.7 inactive; #2 37.8 inactive; #3 52.9 inactive
Fam171a2: #1 68 inactive; #2 58.4 inactive; #3 94.1 inactive
Cyp24a1: #1 92.6 inactive; #2 132 active; #3 82.8 inactive
Reg3g: #1 66.6 inactive; #2 71 inactive; #3 68.4 inactive
Pex11b: #1 75.4 inactive; #2 103 inactive; #3 60.6 inactive
Sorcs1: #1 48.2 inactive; #2 97.1 inactive; #3 49 inactive
Zbtb9: #1 72.3 inactive; #2 66.3 inactive; #3 75.1 inactive
Or8b12b: #1 78.6 inactive; #2 128 active; #3 59.6 inactive
Zdhhc13: #1 90.5 inactive; #2 46 inactive; #3 62 inactive

Quoted from above, 10 entries:
GFP, % of control, by target and reagent
Reg3g: #1 66.6 inactive; #2 71 inactive; #3 68.4 inactive
Pex11b: #1 75.4 inactive; #2 103 inactive; #3 60.6 inactive
Sorcs1: #1 48.2 inactive; #2 97.1 inactive; #3 49 inactive
Zbtb9: #1 72.3 inactive
